According to the supplement of paper PMC10331698:
± gives the standard deviation of the averaged measurements. Most entries show no effect beyond the scatter of the controls.

Experiments:
Experiment in all cases: level (log10 ratio to DMSO vehicle control); higher = higher biomarker level / cell amount than vehicle control
[1] = compound: O=S(=O)(O)C(F)(F)C(F)(F)OC(F)(F)C(F)(F)F [Perfluoro(2-ethoxyethane)sulfonic acid]; settings: 2200 nM; in DMSO
Procedure: (§1)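 BioMAP Diversity Plus panel of 12 human primary cell co-culture systems (3C, 4H, LPS, SAg, BT, BF4T, BE3C, CASM3C, HDF3CGF, KF3CT, MyoF, Mphg). Compounds were added 1 h before stimulation and left for 24 h (MyoF 48 h; BT 72 h for soluble read-outs or 6 d for IgG). Biomarkers were read by ELISA, cytotoxicity by SRB, PBMC viability and proliferation by Alamar Blue. Each well value was divided by the mean of 8 DMSO control wells on the same plate and log10 transformed; duplicate blinded samples were tested at 4 concentrations.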

[2] = compound: NC(=O)C(F)(F)C(F)(F)C(F)(F)C(F)(F)F [Nonafluoropentanamide]; settings: 2200 nM; in DMSO
Procedure: as §1

[3] = compound: O=C(O)C(F)(F)C(F)(F)C(=O)O [Tetrafluorosuccinic acid]; settings: 2200 nM; in DMSO
Procedure: as §1

[4] = compound: C=C(C)C(=O)OCCC(F)(F)C(F)(F)C(F)(F)C(F)(F)C(F)(F)C(F)(F)C(F)(F)C(F)(F)F [8:2 Fluorotelomer methacrylate]; settings: in DMSO
Procedure: as §1

[5] = compound: NC(=O)C(F)(F)C(F)(F)C(F)(F)C(F)(F)C(N)=O [Octafluoroadipamide]; settings: 2200 nM; in DMSO
Procedure: as §1

[6] = compound: COC(=O)CCC(F)(F)C(F)(F)C(F)(F)C(F)(F)F [Methyl 2H,2H,3H,3H-perfluoroheptanoate]; settings: 2200 nM; in DMSO
Procedure: as §1

[7] = compound: O=C(O)C(F)(F)C(F)(F)C(F)(F)C(F)(F)C(F)(F)C(F)(F)C(F)(F)C(F)(F)Cl [9-Chloro-perfluorononanoic acid]; settings: in DMSO
Procedure: as §1

[8] = compound: NS(=O)(=O)C(F)(F)C(F)(F)C(F)(F)C(F)(F)C(F)(F)C(F)(F)F [Perfluorohexanesulfonamide]; settings: 2200 nM; in DMSO
Procedure: as §1

[9] = compound: OCCC(F)(F)C(F)(F)C(F)(F)C(F)(F)F [4:2 Fluorotelomer alcohol]; settings: 2200 nM; in DMSO
Procedure: as §1

[10] = compound: O=C(O)CCC(F)(F)C(F)(F)C(F)(F)C(F)(F)C(F)(F)F [2H,2H,3H,3H-Perfluorooctanoic acid]; settings: 2200 nM; in DMSO
Procedure: as §1

[11] = compound: OC(C(F)(F)F)(C(F)(F)F)C(O)(C(F)(F)F)C(F)(F)F [Perfluoropinacol]; settings: in DMSO
Procedure: as §1

[12] = compound: O=S(=O)(O)CCC(F)(F)C(F)(F)C(F)(F)C(F)(F)C(F)(F)C(F)(F)F [6:2 Fluorotelomer sulfonic acid]; settings: in DMSO
Procedure: as §1

[13] = compound: FC(F)(F)C(F)(F)C(F)(F)C(F)(F)C(F)(F)CCI [1-Iodo-1H,1H,2H,2H-perfluoroheptane]; settings: 2200 nM; in DMSO
Procedure: as §1

[14] = compound: C=C(C)C(=O)OCCC(F)(F)C(F)(F)C(F)(F)C(F)(F)C(F)(C(F)(F)F)C(F)(F)F [(Perfluoro-5-methylhexyl)ethyl 2-methylprop-2-enoate]; settings: in DMSO
Procedure: as §1

Test System	level (log10) [1]	level (log10) [2]	level (log10) [3]	level (log10) ([4]; 740 nM)	level (log10) ([4]; 2200 nM)	level (log10) [5]	level (log10) [6]	level (log10) ([7]; 2200 nM)	level (log10) ([7]; 6700 nM)	level (log10) ([7]; 20000 nM)	level (log10) [8]	level (log10) [9]	level (log10) [10]	level (log10) ([11]; 2200 nM)	level (log10) ([11]; 6700 nM)	level (log10) ([11]; 20000 nM)	level (log10) ([12]; 2200 nM)	level (log10) ([12]; 6700 nM)	level (log10) ([12]; 20000 nM)	level (log10) ([12]; 60000 nM)	level (log10) [13]	level (log10) ([14]; 740 nM)	level (log10) ([14]; 2200 nM)	level (log10) ([14]; 6700 nM)	level (log10) ([14]; 20000 nM)
HDF3CGF:M-CSF	-0.021 ± 0.031	0.0045 ± 0.011	0.015 ± 0.04	-0.0095 ± 0.005	-0.007 ± 0.027	0.009 ± 0.017	0.0085 ± 0.042	-0.0435 ± 0.06	-0.058 ± 0.041	-0.089 ± 0.025	0.0375 ± 0.00071	-0.008 ± 0.071	-0.0665 ± 0.1	-0.0325 ± 0.08	-0.024 ± 0.055	-0.239 ± 0.049	-0.0495 ± 0.0035	-0.0255 ± 0.073	-0.044 ± 0.068	-0.082 ± 0.085	-0.004 ± 0.0071	-0.011	-0.013 ± 0.0085	-0.0175 ± 0.0078	-0.0175 ± 0.0035
HDF3CGF:TIMP-1	0.0295 ± 0.042	0.0035 ± 0.039	0.0075 ± 0.023	-0.0035 ± 0.061	0.003 ± 0.038	0.036 ± 0.041	-0.0055 ± 0.03	-0.0065 ± 0.047	-0.028 ± 0.027	-0.0105 ± 0.056	-0.0175 ± 0.011	-0.0175 ± 0.018	-0.015 ± 0.095	0.004 ± 0.0099	0.015 ± 0.027	0.0205 ± 0.032	-0.0275 ± 0.074	0.0225 ± 0.08	-0.0045 ± 0.076	0.0175 ± 0.13	-0.0195 ± 0.00071	-0.0015 ± 0.0064	-0.024 ± 0.016	-0.035 ± 0.0071	-0.0345 ± 0.0078
BT:sTNF-alpha	0.0515 ± 0.16	0.1 ± 0.078	-0.144 ± 0.071	0.032 ± 0.018	0.008 ± 0.15	0.182 ± 0.16	0.131 ± 0.05	-0.004 ± 0.047	0.0075 ± 0.011	0.0075 ± 0.022	0.0575 ± 0.19	-0.059 ± 0.16	0.143 ± 0.14	0.102 ± 0.11	0.0425 ± 0.061	-0.146 ± 0.015	0.0125 ± 0.032	-0.011 ± 0.031	0.0335 ± 0.07	-0.021 ± 0.04	0.064 ± 0.096	0.117 ± 0.064	0.026 ± 0.023	0.0485 ± 0.1	0.0945 ± 0.03
lMphg:CXCL8/IL-8	0.007 ± 0.024	-0.0185 ± 0.0078	0.013 ± 0.062	0.0135 ± 0.067	-0.0355 ± 0.046	0.029 ± 0.065	0.0115 ± 0.005	0.017 ± 0.016	-0.0145 ± 0.0078	0.0115 ± 0.025	0.0405 ± 0.019	0.018 ± 0.017	0.002 ± 0.051	0.052 ± 0.034	0.0875 ± 0.061	0.161 ± 0.066	-0.0025 ± 0.037	-0.0115 ± 0.005	0.022 ± 0.014	0.0725 ± 0.0092	0.011 ± 0.023	0.002 ± 0.069	-0.0045 ± 0.022	-0.0035 ± 0.011	0.006 ± 0.0028
BE3C:CXCL10/IP-10	-0.011 ± 0.0057	0.0125 ± 0.019	-0.011 ± 0.0028	0.0055 ± 0.026	0.018 ± 0.02	-0.011 ± 0.025	-0.006 ± 0.0057	-0.0205 ± 0.011	-0.0545 ± 0.015	-0.462 ± 0.011	0.0065 ± 0.046	-0.013 ± 0.016	-0.0095 ± 0.012	-0.006 ± 0.0028	-0.0315 ± 0.0035	-0.118 ± 0.0071	-0.006 ± 0.0028	0.0015 ± 0.0021	-0.0095 ± 0.0078	-0.0125 ± 0.018	0.0195 ± 0.054	0.029	0.041 ± 0.02	0.032 ± 0.031	0.022 ± 0.021
